Assay results taken from PubChem BioAssay AID2685 (National Center for Advancing Translational Sciences (NCATS), 2010).
The other results are listed elsewhere or left out. Shown are side measurements of this screen, not its main read-out; they come without a call. Compounds called inactive in the main read-out are mostly missing here. Words in brackets tell the shape of the fitted curve; partial curves, single points and poor fits give uncertain potencies.

Assay: qHTS Assay for Lipid Storage Modulators in Drosophila S3 Cells;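 on cell number change: cells counted by Cell Tracker Red CMTPX staining in the red channel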
Conditions: BODIPY lipid droplet fluorescence, 18-24 h; for cell number change: measured here: cell count max response, cells fed with added oleic acid
Method in brief: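 Laser-scanning cytometry quantifies lipid droplet accumulation (500–530 nm total intensity; droplet/cell object ratio) in oleic acid-fed (400 uM added) Drosophila S3 cells treated with a concentration series. 20 uM Triacsin C defined 100% inhibition.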

[1] = measured here: cell number channel AC50, cells fed with added oleic acid
[2] = measured here: lipid fluorescence (Fed channel) AC50, cells fed with added oleic acid

Q: Which cell number change does the source give for `CCCCc1ccc(NC(=O)CSc2nc(=O)n(CCN(CC)CC)c3c2CCC3)cc1` here?
A: 14.5%

Q: What about the AC50 [1] of the same compound?
A: 1.3 µM [falling, full curve, poor fit]

Q: For `O=C(O)CCCC(=O)Nc1c(F)c(F)c(F)c(F)c1F`, which cell number change is on record?
A: -8.51%

Q: With `COc1ccccc1N1C(=O)C2CC=CC(C)C2C1=O` (stereo unspecified) as the compound, how does the cell number change read?
A: 8.34%

Q: For `Cc1ccc(S(=O)(=O)N(CC(=O)N2CCC(C)CC2)c2ccccc2)cc1`, which cell number change is on record?
A: -10.5%

Q: With `COc1ccc(C)cc1N=Nc1ccc(O)c2ncccc12` as the compound, how does the AC50 [2] read?
A: 14.6 µM [falling, partial curve]

Q: Which AC50 [1] does the source give for `COc1cc(OC)cc(-c2cc3nc4c(c(N5CCN(c6ncccn6)CC5)n3n2)CCCC4)c1` here?
A: 0.731 µM [rising, single point]

Q: And the AC50 [2]?
A: 0.731 µM [rising, full curve]

Q: Which cell number change does the source give for `NC(=O)c1nsc(C(=O)N(CC(=O)NCc2ccco2)c2ccccc2F)c1N` here?
A: -25.9%

Q: What about the AC50 [2] of the same compound?
A: 0.366 µM [falling, full curve, poor fit]

Q: For `O=C(COC(=O)c1cccc(C(=O)OCC(=O)NC2CCCCC2)n1)NC1CCCCC1`, which AC50 [2] is on record?
A: 0.164 µM [falling, full curve, poor fit]

Q: For `COc1cccc(C(=O)CSc2nnc(CNS(C)(=O)=O)n2-c2ccc(C)cc2)c1`, which AC50 [1] is on record?
A: 5.8 µM [rising, single point]

Q: With `CSCCC(NS(=O)(=O)c1ccc(C)cc1)C(=O)N1CC=C(c2ccccc2)CC1` (stereo unspecified) as the compound, how does the AC50 [2] read?
A: 0.82 µM [rising, partial curve]

Q: For `CN(Cc1nc2ccc(F)cc2[nH]1)C(=O)C1CCC(=O)N(C2CC2)C1` (stereo unspecified), which cell number change is on record?
A: -2.08%

Q: What does the source list for `Cc1ccc(OCc2nnc(N)s2)cc1C`?
A: cell number change: 65.6%; AC50 [1]: 4.11 µM [rising, partial curve]; AC50 [2]: 25.9 µM [rising, single point]

Q: For `N#Cc1c(NC(=O)CSc2nnnn2C2CCCC2)sc2c1CCCC2`, which AC50 [1] is on record?
A: 0.58 µM [rising, single point]

Q: And the AC50 [2]?
A: 0.58 µM [rising, single point]

Q: For `COc1cc(C(=O)O)cc(Br)c1OC1CCCC1`, which cell number change is on record?
A: -20.4%

Q: What about the AC50 [1] of the same compound?
A: 0.259 µM [falling, full curve, poor fit]

Q: What about the AC50 [2] of the same compound?
A: 8.2 µM [falling, partial curve]

Q: Which cell number change does the source give for `CCn1c(=O)cc(SCC(=O)N2CCN(c3ccccn3)CC2)c2ccccc21` here?
A: 246%

Q: And the AC50 [1]?
A: 8.2 µM [rising, partial curve]

Q: And the AC50 [2]?
A: 5.8 µM [rising, partial curve]

Q: Which cell number change does the source give for `O=C(CSc1ncn[nH]1)N(C1CCCCC1)C1CCCCC1` here?
A: 38.7%

Q: What about the AC50 [1] of the same compound?
A: 20.6 µM [rising, single point]

Q: With `O=S(=O)(c1ccc(N2CCN(Cc3ccc4c(c3)OCO4)CC2)nc1)N1CCOCC1` as the compound, how does the cell number change read?
A: 3.38%

Q: Which cell number change does the source give for `O=C1CCc2cc(S(=O)(=O)N3CCC(C(=O)NC4CCCc5ccccc54)CC3)ccc2N1` (stereo unspecified) here?
A: 10.5%

Q: With `CCn1c(O)c(/C=C2\C=Nc3ccccc32)sc1=O` as the compound, how does the cell number change read?
A: -8.44%

Q: With `CC(=O)Nc1ccc(NC(=O)Nc2cccc(Cl)c2)cc1` as the compound, how does the cell number change read?
A: 26.2%

Q: Which results are given for `CCNC(=S)N1CCN(c2cccc(C(F)(F)F)c2)CC1`?
A: cell number change: 34%; AC50 [1]: 6.51 µM [rising, partial curve]; AC50 [2]: 9.2 µM [rising, partial curve]

Q: With `FC(F)(F)c1cccc(-n2cccc2/C=N/n2cnnc2)c1` as the compound, how does the cell number change read?
A: -24.7%

Q: With `CCC(=NCCc1c(C)[nH]c2ccccc12)C1=C(O)CC(c2ccccc2)CC1=O` (stereo unspecified) as the compound, how does the cell number change read?
A: -4.08%

Q: What about the AC50 [2] of the same compound?
A: 29.1 µM [falling, single point]

Q: With `c1ccc2[nH]c(CN3CCN(c4ncnc5c4oc4ccccc45)CC3)nc2c1` as the compound, how does the cell number change read?
A: -14.1%

Q: And the AC50 [2]?
A: 0.651 µM [rising, full curve, poor fit]

Q: With `CCCCCOc1ccc(/C=C/c2c([N+](=O)[O-])c(=O)n(C)c(=O)n2C)cc1` as the compound, how does the cell number change read?
A: 0.901%

Q: And the AC50 [2]?
A: 0.0291 µM [falling, full curve, poor fit]

Q: Which results are given for `CCOc1ccc(S(=O)(=O)N2CCCC(C(=O)NC3CCCC3)C2)cc1` (stereo unspecified)?
A: cell number change: -8.29%; AC50 [2]: 29.1 µM [rising, single point]

Q: For `Cc1ccc(-c2nn(-c3ccccc3)cc2/C=N/NC(=O)c2ccc3c(c2)OCO3)cc1`, which cell number change is on record?
A: -29.6%

Q: What about the AC50 [1] of the same compound?
A: 1.46 µM [falling, full curve, poor fit]

Q: Which cell number change does the source give for `Cc1ccc2c(Cl)cc(Cl)c(OCC(=O)Nc3cc(S(=O)(=O)N(C)C)ccc3C)c2n1` here?
A: -18%

Q: What about the AC50 [2] of the same compound?
A: 29.1 µM [falling, single point]

Q: With `CSC1=NC2(CCCCC2)C2=C(CCCC2)N1` as the compound, how does the AC50 [2] read?
A: 1.84 µM [falling, full curve]

Q: With `Cc1ccc(NC(=O)COC(=O)c2ccc(F)cc2Cl)c(Br)c1` as the compound, how does the cell number change read?
A: -21.9%

Q: What about the AC50 [2] of the same compound?
A: 6.51 µM [falling, single point]

Q: For `CC(OC(=O)Cn1cnc2ccccc2c1=O)C(=O)NCc1ccccc1` (stereo unspecified), which cell number change is on record?
A: -10%

Q: Which results are given for `Cc1ccc(N2CC(C(=O)Nc3nnc(C(C)C)s3)CC2=O)cc1` (stereo unspecified)?
A: cell number change: -3.86%; AC50 [1]: 2.31 µM [falling, partial curve]; AC50 [2]: 18.4 µM [falling, single point]

Q: For `Cc1ccc(C(=O)NCC(=O)OCCOc2ccccc2Cl)cc1`, which cell number change is on record?
A: 47.8%

Q: What about the AC50 [1] of the same compound?
A: 29.1 µM [rising, single point]

Q: With `CC(=O)c1cccc(NC(=S)NC(=O)c2ccc(Br)cc2)c1` as the compound, how does the cell number change read?
A: 31.5%

Q: What about the AC50 [1] of the same compound?
A: 9.2 µM [rising, partial curve]

Q: And the AC50 [2]?
A: 20.6 µM [rising, single point]

Q: For `O=C(c1cccnc1)C1Cc2ccccc2C1=O` (stereo unspecified), which cell number change is on record?
A: 4.89%

Q: Which cell number change does the source give for `COCc1cc(C)nc(SCC(=O)Nc2ccccc2C)c1C#N` here?
A: 76.7%

Q: What about the AC50 [1] of the same compound?
A: 0.0058 µM [rising, full curve, poor fit]

Q: What about the AC50 [2] of the same compound?
A: 0.0058 µM [rising, full curve, poor fit]

Q: Which cell number change does the source give for `COc1ccc2sc(NC(=O)CC(C)C)nc2c1` here?
A: -32.3%

Q: And the AC50 [1]?
A: 10.3 µM [falling, partial curve]

Q: And the AC50 [2]?
A: 2.06 µM [rising, full curve, poor fit]

Q: For `O=[N+]([O-])c1ccc(N2CCCCC2)c(Cl)c1N1CCCCC1`, which cell number change is on record?
A: -24.5%

Q: What about the AC50 [2] of the same compound?
A: 14.6 µM [falling, partial curve, poor fit]

Q: Which cell number change does the source give for `COC(=O)c1ccccc1NC(=S)N1CCN(c2ccccc2)CC1` here?
A: -30%

Q: And the AC50 [1]?
A: 29.1 µM [falling, single point]

Q: What about the AC50 [2] of the same compound?
A: 16.4 µM [falling, partial curve, poor fit]
